{"source": "patent US20230149515A1", "about": "“INHIBITION OF SARS-COV-2 VIRAL ENTRY THROUGH ORAL ADMINISTRATION OF L[…] USES THEREOF” (priority 2020, published 2023)", "tested_on": "SARS-CoV-2", "type": "cell-based", "conditions": "Huh7 cells treated with 50 nanomolar Remdesivir; FIG. 1B", "note": "For at least one compound, name, drawing or mass did not settle the structure."}
{"compound": "CCC(CC)COC(=O)[C@H](C)N[P@](=O)(OC[C@H]1O[C@@](C#N)(c2ccc3c(N)ncnn23)[C@H](O)[C@@H]1O)Oc1ccccc1", "note": "[Remdesivir, reference compound]", "values": [{"measurement": "viral nucleocapsid protein imaging observation", "result": "aborted viral replication"}]}
